Measured values as given in patent publication US8574834B2, “Method for predicting the response to a therapy” (Index Pharmaceuticals AB, priority 2007, dated 2013).
At least one compound was matched to its structure with a doubt left.

Test system: CD163 gene
Assay: CD163 gene expression in PBMC after 48 hrs stimulation, real-time PCR
Type: cell-based, human
Details: Dex 10^-10, 10^-8 or 10^-6 M, dose dependent, PBMC of healthy volunteers (HV) and steroid resistant patients (SR)

In the case of `C[C@@H]1C[C@H]2[C@@H]3CCC4=CC(=O)C=C[C@]4(C)[C@@]3(F)[C@@H](O)C[C@]2(C)[C@@]1(O)C(=O)CO` [dexamethasone], the CD163 expression is reported as “up-regulated”.
